Values of other authors as cited in patent US20030149090A1, “Compositions for the treatment of infectious diseases” (priority 2001, published 2003).
For at least one compound, name, drawing or mass did not settle the structure.

What was measured:
[1] = test system: Arcanobacterium haemolyticum; details: reported in the literature; cited from earlier work
[2] = test system: S somaliensis; details: McNeil and Brown 1994; cited from earlier work

| SMILES | Susceptibility of A. haemolyticum [1] | In vitro sensitivity of S somaliensis [2] |
| --- | --- | --- |
| CCC[C@@H]1C[C@@H](C(=O)N[C@@H]([C@H]2O[C@H](SC)[C@H](O)[C@@H](O)[C@H]2O)[C@H](C)Cl)N(C)C1 [clindamycin] | uniformly susceptible | – |
| CO[C@H]1/C=C/O[C@@]2(C)Oc3c(C)c(O)c4c(O)c(c(/C=N/N5CCN(C)CC5)c(O)c4c3C2=O)NC(=O)/C(C)=C\C=C\[C@H](C)[C@H](O)[C@@H](C)[C@@H](O)[C@@H](C)[C@H](OC(C)=O)[C@@H]1C [rifampicin] | – | sensitive |
